# Results published in PubChem BioAssay AID540276 (National Center for Advancing Translational Sciences (NCATS), 2011).
# Where “and” joins values, the source holds several entries; their conditions need not be identical. Equal entries are not always repeated. The campaign covered roughly 300,000 compounds. About 5,400 (1.8%) were called active. Inconclusive results, whose numbers are uncertain, are shown with a selection of clear calls. Calls follow the shape of the full dose curve; tested in HEK293 cells. Potencies of inconclusive entries are doubtful fits and often do not repeat.
# Experiment: qHTS for inhibitors of binding or entry into cells for Marburg Virus
# Settings: Marburg virus pseudotyped entry inhibition, cell reporter; activity change, negative = inhibition: at 37.8 µM (top of the series) unless noted
# % is scaled to controls: 0 for no effect and ±100 for the full control effect; potency is read from the fitted curve at half-maximal effect.
SMILES,"activity change, negative = inhibition",Potency
CCSc1nnc(Nc2ccc(C)cc2)s1,inactive: 11%,
Cc1cc(-c2nnc(CCC(=O)NCc3cc(F)cc(C(F)(F)F)c3)o2)no1,inactive: 37.7%,
Cc1ccc(NC(=O)c2noc3c2CC(C(C)(C)C)CC3)cc1 (centres undefined),,"inconclusive: 15.8 µM [activator, single point]"
CC(C)N(CC(=O)Nc1ccc(Cl)cc1C(F)(F)F)C(=O)CCl,,active: 10 µM
CS(=O)(=O)c1ccc(Cl)c(NC(=O)CCl)c1,,"inconclusive: 3.98 µM [inhibitor, full curve, poor fit]"
O=Nc1c(O)ccc2cc(S(=O)(=O)O)ccc12,inactive: -15.9%,
COC(=O)c1ccc(CN2C(=O)C3(CC(C)=C[C@@H](C)O3)c3c(Br)cccc32)cc1 (some centres undefined),,"inconclusive: 668 nM [activator, single point] and inconclusive: 3.3 nM [activator, full curve, poor fit]"
NC(=S)NN=C1CCCCCCCC1,inactive: -0.94%,
COc1ccccc1OCC(=O)NCc1n[nH]c(=O)c2ccccc12,,"inconclusive: 6.31 µM [inhibitor, single point]"
Fc1ccccc1CSc1ncn[nH]1,,"inconclusive: 31.6 µM [activator, single point]"
COc1ccc(N2CCN(C(=O)c3oc4ccccc4c3NC(=O)CCc3cc(OC)no3)CC2)cc1,inactive: -18.3% [at 46.1 µM],
Cc1cc(-c2ccccc2)cc(-c2ccccc2)[n+]1C,,"inconclusive: 17.8 µM [inhibitor, single point]"
COc1ccccc1N(C)S(=O)(=O)c1ccc(C(=O)Nc2ccc3nc(C)sc3c2)cc1,,"inconclusive: 35.5 µM [inhibitor, single point]"
COc1ccc(NC(=S)NCCc2ccc(S(N)(=O)=O)cc2)c(OC)c1,,"inconclusive: 1.26 µM [inhibitor, partial curve, poor fit]"
Cc1nn(C)c(C(=O)N2CCc3ccccc32)c1Br,inactive: -16.3%,
CN(C)C(=O)c1snnc1-c1ccccc1,,"inconclusive: 1.58 µM [inhibitor, partial curve]"
COc1ccc(C2=NN(C(=O)CSc3ncccn3)C(c3cccc(OC)c3OC)C2)cc1 (centres undefined),,"inconclusive: 35.5 µM [inhibitor, single point]"
CCCCn1c(N)c(N(CCC(C)C)C(=O)c2cc(Cl)nc3ccccc23)c(=O)[nH]c1=O,,"inconclusive: 1 µM [inhibitor, partial curve, poor fit]"
COc1ccc(CCNC(=O)c2ccc(Cn3c(=O)c4ccccc4n(Cc4cccc(F)c4)c3=O)cc2)cc1OC,,"inconclusive: 8.91 µM [inhibitor, partial curve, poor fit]"

# Two of the compounds above, with bars between the fields.
SMILES | activity change, negative = inhibition | Potency
CS(=O)(=O)c1ccc(Cl)c(NC(=O)CCl)c1 |  | inconclusive: 3.98 µM [inhibitor, full curve, poor fit]
O=Nc1c(O)ccc2cc(S(=O)(=O)O)ccc12 | inactive: -15.9% | 
